Earlier results in US20140303251A1, “Methods Of Treating Acute Kidney Injury With Retinoic Acid” (Beth Israel Deaconess Medical Center, Inc., priority 2011, published 2014).
For at least one compound, name, drawing or mass did not settle the structure.

Test system: toxicant-induced renal injury
Details: reference 19; cited from earlier work

SMILES: CC1=C(/C=C/C(C)=C/C=C/C(C)=C/C(=O)O)C(C)(C)CCC1 [Retinoic acid]
- protection from toxicant-induced renal injury: protect
